These results are taken from publication PMC8384837.

Common to all, as to details: yeast three-hybrid, YBZ-1, SC-Leu-His + 0.5 mM 3-AT, 4 days
Assay [1] addresses T1, PUM1 PUF domain R1-CGE S863C + R864G + Q867E (Homo sapiens) (UniProt Q14671).
T1 sequence: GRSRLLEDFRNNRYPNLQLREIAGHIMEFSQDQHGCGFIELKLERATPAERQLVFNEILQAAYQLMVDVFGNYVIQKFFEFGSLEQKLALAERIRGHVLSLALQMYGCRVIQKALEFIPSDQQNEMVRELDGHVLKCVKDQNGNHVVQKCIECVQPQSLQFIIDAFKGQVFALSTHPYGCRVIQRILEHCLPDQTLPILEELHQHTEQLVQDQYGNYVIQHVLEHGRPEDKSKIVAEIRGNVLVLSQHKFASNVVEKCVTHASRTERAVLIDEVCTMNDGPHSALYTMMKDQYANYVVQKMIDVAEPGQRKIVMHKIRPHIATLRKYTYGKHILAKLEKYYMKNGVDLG

Assay [2] deals with T2, PUM1 PUF domain R1-CWR S863C + R864W + Q867R (Homo sapiens) (UniProt Q14671).
T2 sequence: T1 sequence with G37W, E40R

Assay [3] has as its target T3, PUM1 PUF domain R1-ERV S863E + Q867V (Homo sapiens) (UniProt Q14671).
T3 sequence: T1 sequence with C36E, G37R, E40V

Assay [4] has as its target T4, PUM1 PUF domain R1-GRS S863G + Q867S (Homo sapiens) (UniProt Q14671).
T4 sequence: T1 sequence with C36G, G37R, E40S

Assay [5] deals with T5, PUM1 PUF domain R1-KIR S863K + R864I + Q867R (Homo sapiens) (UniProt Q14671).
T5 sequence: T1 sequence with C36K, G37I, E40R

The target in assay [6] is T6, PUM1 PUF domain R1-KLS S863K + R864L + Q867S (Homo sapiens) (UniProt Q14671).
T6 sequence: T1 sequence with C36K, G37L, E40S

Assay [7] addresses T7, PUM1 PUF domain R1-KSS S863K + R864S + Q867S (Homo sapiens) (UniProt Q14671).
T7 sequence: T1 sequence with C36K, G37S, E40S

Assay [8] concerns the target T8, PUM1 PUF domain R1-LWK S863L + R864W + Q867K (Homo sapiens) (UniProt Q14671).
T8 sequence: T1 sequence with C36L, G37W, E40K

Assay [9] addresses T9, PUM1 PUF domain R1-RCL S863R + R864C + Q867L (Homo sapiens) (UniProt Q14671).
T9 sequence: T1 sequence with C36R, G37C, E40L

Assay [10] has as its target T10, PUM1 PUF domain R1-RSE S863R + R864S + Q867E (Homo sapiens) (UniProt Q14671).
T10 sequence: T1 sequence with C36R, G37S

The target in assay [11] is T11, PUM1 PUF domain R1-SFK R864F + Q867K (Homo sapiens) (UniProt Q14671).
T11 sequence: T1 sequence with C36S, G37F, E40K

For assay [12], the target named is T12, PUM1 PUF domain R1-TFR S863T + R864F + Q867R (Homo sapiens) (UniProt Q14671).
T12 sequence: T1 sequence with C36T, G37F, E40R

The target in assay [13] is T13, PUM1 PUF domain R1-TMR S863T + R864M + Q867R (Homo sapiens) (UniProt Q14671).
T13 sequence: T1 sequence with C36T, G37M, E40R

Assay [14] concerns the target T14, PUM1 PUF domain R1-TVR S863T + R864V + Q867R (Homo sapiens) (UniProt Q14671).
T14 sequence: T1 sequence with C36T, G37V, E40R

Assay [15] deals with T15, PUM1 PUF domain R1-VYR S863V + R864Y + Q867R (Homo sapiens) (UniProt Q14671).
T15 sequence: T1 sequence with C36V, G37Y, E40R

Assay [16] concerns the target T16, PUM1 PUF domain R2-VFQ R3-THE R4-TFR N899V + Y900F + C935T + R936H + Q939E + N971T + H972F + Q975R (Homo sapiens) (UniProt Q14671).
T16 sequence: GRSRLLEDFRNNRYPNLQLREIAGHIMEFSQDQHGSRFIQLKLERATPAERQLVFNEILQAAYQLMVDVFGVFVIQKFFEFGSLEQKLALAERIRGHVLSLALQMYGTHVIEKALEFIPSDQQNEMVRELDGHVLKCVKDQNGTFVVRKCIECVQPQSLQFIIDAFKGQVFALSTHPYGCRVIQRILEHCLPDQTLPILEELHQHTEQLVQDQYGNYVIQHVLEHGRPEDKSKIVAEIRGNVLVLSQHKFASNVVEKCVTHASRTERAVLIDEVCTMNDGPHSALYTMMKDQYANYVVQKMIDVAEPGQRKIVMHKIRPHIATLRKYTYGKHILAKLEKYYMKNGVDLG

The target in assay [17] is T17, PUM1 PUF domain R1-QFR R2-VFQ R3-THE R4-TFR S863Q + R864F + Q867R + N899V + Y900F + C935T + R936H + Q939E + N971T + H972F + Q975R (Homo sapiens) (UniProt Q14671).
T17 sequence: T16 sequence with S36Q, R37F, Q40R

In assay [18] the target is T18, PUM1 PUF domain R3-THE R4-TFR R5-PHQ R6-SWD C935T + R936H + Q939E + N971T + H972F + Q975R + C1007P + R1008H + N1043S + Y1044W + Q1047D (Homo sapiens) (UniProt Q14671).
T18 sequence: T16 sequence with V72N, F73Y, C180P, R181H, N216S, Y217W, Q220D

The target in assay [19] is T19, PUM1 PUF domain R3-THE R4-TFR R6-SWD C935T + R936H + Q939E + N971T + H972F + Q975R + N1043S + Y1044W + Q1047D (Homo sapiens) (UniProt Q14671).
T19 sequence: T16 sequence with V72N, F73Y, N216S, Y217W, Q220D

For assay [20], the target named is T20, PUM1 PUF domain R1-GFE S863G + R864F + Q867E (UniProt Q14671).
T20 sequence: T1 sequence with C36G, G37F

Numbering of substitutions follows the chain as printed. Some of the results follow. For some assays here: At the low end of the ranking the order means little.

Take “GGCUAGAACUAGUGGAUCCCCCGGCGCCCGGCGGCUCGAGCCCGGGUAAGUGUAAAUUGUCUGCAUGCCGCCGGGCGCCAUGCCUGCAGGUCGACUCUAGAAAACAUG”: the binding signal (log2 enrichment (interaction score)) in assay [1] was -1.38; in [2] it was 0.67; in assay [3], -0.27; in assay [4], 0.5; in assay [5], 1.03; in [6], -0.46. In addition, the binding signal (log2 enrichment (interaction score)) in assay [7] is -0.1; in assay [8] it was -1.2; in assay [9], -0.03; in [10], -0.17; in assay [11], 0.71; in assay [12] it was -0.84. The binding signal (log2 enrichment (interaction score)) in assay [13] was -0.47; in [14], 0.13; in [15], 0.09.

Consider “GGCUAGAACUAGUGGAUCCCCCGGCGCCCGGCGGCUCGAGCCCGGGUAAGGUUACGUAGUCUGCAUGCCGCCGGGCGCCAUGCCUGCAGGUCGACUCUAGAAAACAUG”, for which the binding signal (log2 enrichment (interaction score)) in assay [16] is 9.27.

On to “GGCUAGAACUAGUGGAUCCCCCGGCGCCCGGCGGCUCGAGCCCGGGUAAGUGUACGACGUCUGCAUGCCGCCGGGCGCCAUGCCUGCAGGUCGACUCUAGAAAACAUG”, for which the binding signal (log2 enrichment (interaction score)) in [17] is -2.4.

Consider “GGCUAGAACUAGUGGAUCCCCCGGCGCCCGGCGGCUCGAGCCCGGGUAAGUGGACGUAGUCUGCAUGCCGCCGGGCGCCAUGCCUGCAGGUCGACUCUAGAAAACAUG”, for which the binding signal (log2 enrichment (interaction score)) in assay [18] was -0.44; in assay [19] it was 0.13.

As to “GGCUAGAACUAGUGGAUCCCCCGGCGCCCGGCGGCUCGAGCCCGGGUAAGUGUAAAUCGUCUGCAUGCCGCCGGGCGCCAUGCCUGCAGGUCGACUCUAGAAAACAUG”, the binding signal (log2 enrichment (interaction score)) in [20] is -3.19.
